Laboratory results reported in PubChem BioAssay AID504467 (National Center for Advancing Translational Sciences (NCATS), 2011).
Where “and” joins values, the source holds several entries; their conditions need not be identical. Equal entries are not always repeated. Hit rate of the full screen: of about 330,000 compounds, about 7,700 (2.3%) were called active. The inconclusive results got no clear call from the source; some entries with a clear call stand among them for comparison. Calls follow the shape of the dose curve; as a rule, active = well fitted inhibition curve with a large enough effect; inconclusive = small, poorly fitted or top-dose-only effect, or effect the other way; inactive = flat fitted curve, though single readings scatter. Potencies of inconclusive entries are doubtful fits and often do not repeat.

Test: qHTS screen for small molecules that inhibit ELG1-dependent DNA repair in human embryonic kidney (HEK293T) cells expressing luciferase-tagged ELG1; also: nearly all actives have a fitted effect of over 55% in size
Details: HEK293T ELG1-luciferase reporter, luminescence, 16 h, DNA damage induced by 5-fluorouridine; activity change, negative = inhibition: at 46.1 µM (top of the series)
How it was run: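 HEK293T cells expressing luciferase-tagged ELG1 (2,000/well) received 5-Fluorouridine plus compound or DMSO for 16 hr at 37 °C. Luciferase was read by ONE-Glo luminescence after 30 min at room temperature.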
% is scaled to controls: 0 for no effect and ±100 for the full control effect; potency is read from the fitted curve at half-maximal effect.

| Compound | Potency | activity change, negative = inhibition |
| --- | --- | --- |
| COc1cc(NC(=O)Nc2cccc([N+](=O)[O-])c2)cc(OC)c1 | inconclusive: 16.4 µM [inhibitor, single point] |  |
| Cc1cc(C(=O)CN2CC(C)OC(C)C2)c(C)n1-c1ccccc1 (stereo not given) | inconclusive: 23.1 µM [activator, partial curve] |  |
| O=C(CCCN=C1NS(=O)(=O)c2ccccc21)OCc1ccccc1 |  | inactive: 8.54% |
| C/C(N)=C(/C#N)C(=O)CSc1nc2cc(Cl)ccc2s1 | inconclusive: 29.1 µM [activator, partial curve, poor fit] |  |
| CCC(C)C(=O)N1c2ccccc2C(=C2SC(C(=O)OC)=C(C(=O)OC)S2)C(=S)C1(C)C (stereo not given) |  | inactive: -18.2% |
| COC(=O)N/N=C\c1ccc(OC(=O)c2ccco2)cc1 | inconclusive: 3.66 µM [inhibitor, single point] |  |
| Cc1ccc2nc(C3CCN(C(=O)NCc4ccccc4)CC3)[nH]c2c1 |  | inactive: 13.5% |
| Cc1ccc(NC(=O)c2ccc(Br)o2)cc1S(=O)(=O)N(C)C |  | inconclusive: 0% [activator] |
| O=C1[C@H]2[C@@H](c3ccc(Cl)cc3)N3C(=O)N(c4cccc(F)c4)C(=O)[C@@]3(Cc3ccc(Cl)cc3)[C@H]2C(=O)N1C1CCCCC1 |  | inactive: 26.9% |
| Cc1ccc(COC(=O)c2cc(S(=O)(=O)N3CCOCC3)ccc2C)cc1 | active: 23.1 µM |  |
| COc1cc(/C=C2\SC(=S)N(NC(=O)c3ccccc3OC)C2=O)ccc1O |  | inactive: 6.25% |
| O=[N+]([O-])c1ccc(N2CCN(S(=O)(=O)c3ccc(Cl)cc3)CC2)cc1NCC1CCCO1 (stereo not given) |  | inactive: 3.16% |
| Cc1cccc(N2CCN(C(=O)C(C)n3nc(C)n4c(cc5occc54)c3=O)CC2)c1C (stereo not given) | inconclusive: 29.1 µM [inhibitor, single point] |  |
| COc1cccc(CNC(=O)N2CCN(S(=O)(=O)c3ccc(C)cc3)CC2)c1 |  | inactive: 4.6% |
| CC(=O)Nc1ccc(C(=O)NCCc2ccccc2)cc1 | inconclusive: 18.4 µM [activator, partial curve] |  |
| O=C(O)/C=C/C(=O)Nc1ccc(-c2ccccc2)cc1 | inconclusive: 20.6 µM [activator, single point] and inconclusive: 29.1 µM [activator, single point] |  |
| CC(C)Cn1c(SCC(=O)O)nnc1-c1cccc(S(=O)(=O)N2CCOCC2)c1 |  | inactive: 8.58% |
| COc1cc(Cl)ccc1OCc1cc(C(=O)NCc2cc(C(C)C)no2)no1 | inconclusive: 2.59 µM [activator, full curve] |  |
| Oc1ccccc1-c1nc(NCc2ccccc2)c2ccccc2n1 |  | inactive: -21.5% |
| O=C(NCc1ccc(F)cc1)c1cccs1 |  | inactive: 10.8% |
| Cc1cc(Br)ccc1NC(=O)c1sc2ncn(CC(=O)N3CCN(c4ccccn4)CC3)c(=O)c2c1C |  | inactive: -19.8% |
| O=C1NC(c2cccc(Cl)c2)Nc2ccccc21 (stereo not given) | inconclusive: 18.3 µM [activator, single point] |  |
| COc1ccc(C(NC(C)=O)c2ccc3cccnc3c2O)c(OC)c1 (stereo not given) | inconclusive: 4.61 µM [inhibitor, partial curve] |  |
| CC(=O)Nc1ccc(S(=O)(=O)NCCc2c[nH]c3ccc(C)cc23)cc1 |  | inactive: -22.2% |

Reformatted as tab-separated lines: 2 of the compounds above
Compound	Potency	activity change, negative = inhibition
Cc1ccc(COC(=O)c2cc(S(=O)(=O)N3CCOCC3)ccc2C)cc1	active: 23.1 µM	
COc1cc(/C=C2\SC(=S)N(NC(=O)c3ccccc3OC)C2=O)ccc1O		inactive: 6.25%

Single records, from the list above:
Oc1ccccc1-c1nc(NCc2ccccc2)c2ccccc2n1 reads activity change, negative = inhibition: inactive: -21.5%
Cc1cccc(N2CCN(C(=O)C(C)n3nc(C)n4c(cc5occc54)c3=O)CC2)c1C (stereo not given) reads Potency: inconclusive: 29.1 µM [inhibitor, single point]

(cont.)

| Compound | Potency | activity change, negative = inhibition |
| --- | --- | --- |
| CCCN1CCOC(CC(=O)Nc2ccc([N+](=O)[O-])cc2)C1=O (stereo not given) |  | inactive: -12.7% |
| COc1ccc2nc(NC(=O)CSc3n[nH]c(N)n3)sc2c1 | inconclusive: 7.3 µM [activator, single point] |  |
| CCOC(=O)N1CCN(c2ccc(Cl)c(Cl)c2)CC1 |  | inactive: 8.38% |
| CCc1c(C)nc2ncnn2c1N1CCC(C(=O)NCc2cccc(OC)c2)CC1 | inconclusive: 18.4 µM [inhibitor, single point] |  |
| O=C(Cn1nnc(-c2ccccc2NC(=O)c2cccs2)n1)Nc1ccccc1 | inconclusive: 23.1 µM [inhibitor, single point] |  |
| CCOC(=O)[C@H]1[C@H]2COc3ccc(C)cc3[C@@H]2N2C(=O)c3cc(C)ccc3NC(=O)[C@@]12C | inconclusive: 0.231 µM [inhibitor, single point] |  |
| Cc1cc(-c2ccc(Cl)cc2)n2ncnc2n1 | inconclusive: 9.2 µM [activator, partial curve, poor fit] |  |
| CCSc1nnc(NC(=O)CCN2C(=O)C3CCCCC3C2=O)s1 (stereo not given) | inconclusive: 18.3 µM [activator, partial curve] |  |
| CC(C)(C)c1cc(NC(=O)C2CCCO2)no1 (stereo not given) | inconclusive: 13 µM [activator, partial curve] |  |
| O=C(Nc1nccs1)c1ccc(Cl)c(S(=O)(=O)N2CCOCC2)c1 | active: 20.6 µM |  |
| COc1ccc(NC(=O)Nc2cccc(C)n2)cc1 | inconclusive: 23.1 µM [activator, partial curve] |  |
| Cc1cc(C)n2nc(CCc3ccccc3)nc2n1 | inconclusive: 14.6 µM [activator, single point] |  |
| COc1ccc(N=C2S/C(=C\c3cc(C)n(C)c3C)C(=O)N2CC(C)C)cc1 | inconclusive: 20.6 µM [inhibitor, single point] |  |
| CCOC(=O)N1CCN(C(=O)/C(=C/c2ccc(Cl)cc2)NC(=O)c2ccccc2)CC1 |  | inactive: -0.742% |
| CC1=NN(c2ccccc2)C(=O)/C1=C/c1cccs1 | inconclusive: 18.4 µM [activator, partial curve] |  |
| CCOC(=O)C1=C(O)C(=O)N(Cc2ccccc2)C1 |  | inactive: -4.82% |
| CN(Cc1ccccc1)c1ncnc(N)c1[N+](=O)[O-] | inconclusive: 20.6 µM [inhibitor, partial curve] |  |
| O=C(NCc1ccc(C(F)(F)F)cc1)C12CN(Cc3ccccc3)CC1C(c1cccc([N+](=O)[O-])c1)=NO2 (stereo not given) |  | inactive: 0.867% |
| O=C(COC(=O)c1ccco1)NC1CCCC1 | inconclusive: 20.6 µM [activator, partial curve, poor fit] |  |
| CSc1ccccc1NC(=O)c1cccc(S(=O)(=O)N2CCN(C)CC2)c1 | inconclusive: 18.3 µM [activator, partial curve, poor fit] |  |
| Cn1nc(C(=O)NNC(=O)C2CSC3(C)CCC(=O)N23)c2ccccc2c1=O (stereo not given) | inconclusive: 5.17 µM [activator, partial curve, poor fit] |  |
| CN(C)c1ccc(/C=C2\SC(N3CCCCC3)=NC2=O)cc1 | inconclusive: 20.6 µM [activator, partial curve] |  |
| CCn1c2ccccc2c2cc(NC(=O)c3cccc([N+](=O)[O-])c3C)ccc21 | inconclusive: 13 µM [inhibitor, partial curve, poor fit] |  |
| Cc1ccccc1C(=O)NC1CCSC1=O (stereo not given) |  | inactive: 0.247% |

| Compound | Potency | activity change, negative = inhibition |
| --- | --- | --- |
| Nc1c(C(=O)c2ccc(Cl)cc2)sc2nc3c(cc12)CCC3 | inconclusive: 14.6 µM [activator, partial curve] |  |
| COc1ccc(C(NC(=O)CNC(C)=O)C(=O)Nc2ccc3c(c2)OCCO3)cc1 (stereo not given) | inconclusive: 3.55 µM [activator, full curve, poor fit] |  |
| O=C(c1ccccc1)N1CCN(Cc2c[nH]c3ccccc23)CC1 | inconclusive: 16.4 µM [inhibitor, single point] |  |
| COC(=O)CCCC1=CC2=C(c3ccccc3)C(=O)C(C)(OC(=O)C3CCCC3)C(=O)C2=CN1CCc1ccccn1 (stereo not given) |  | inconclusive: 29.5% [activator] |
| N#CC(C#N)=C1C(=O)N(CCN2CCOCC2)c2ccccc21 |  | inactive: 20.4% |
| COc1cc(OC)cc(-c2nc3ccccc3c(=O)n2OC(=O)c2ccc(Br)cc2)c1 |  | inactive: -24.9% |
| CCOc1ccccc1NC(=O)c1cc(-c2ccccn2)nc2ccccc12 | inconclusive: 23.1 µM [inhibitor, single point] |  |
| COc1ccc(N2CC(C)Cn3c2nc2c3c(=O)n(Cc3ccccc3F)c(=O)n2C)c(OC)c1 (stereo not given) | inconclusive: 29.1 µM [inhibitor, single point] |  |
| COc1ccc(OCC(=O)N2CCN(c3cccc(Cl)c3)CC2)cc1 | inconclusive: 0.103 µM [activator, full curve, poor fit] |  |
| Cc1ccc(C)c(S(=O)(=O)N2CCN(c3nc(CN4CCOCC4)nc4sc(C)c(C)c34)CC2)c1 | inconclusive: 18.3 µM [inhibitor, partial curve, poor fit] |  |
| CCc1cccc(NC(=O)Cc2ccc(OC)c(OC)c2)c1 |  | inactive: 10.2% |
| COC(=O)C1=C(C(=O)OC)[C@@H]2N(C)c3ccc(OC)cc3[C@@]23C[C@@H](C(=O)OC)N=C3N1 |  | inactive: 6.59% |
| CC(OC(=O)COc1cccc2c1OC(C)(C)C2)C(=O)Nc1ccc(S(N)(=O)=O)cc1 (stereo not given) |  | inactive: 14% |
| C/C(Cn1cnc([N+](=O)[O-])n1)=N\NC(=O)c1ccc(F)cc1 | inconclusive: 29.1 µM [activator, single point] |  |
| Cc1ccc(NC(=O)c2ccccn2)c(Br)c1 | inconclusive: 16.4 µM [activator, partial curve] |  |
| CC(C)CC(NC(=O)CC12CC3CC(CC(C3)C1)C2)C(=O)NC1=NCCS1 (stereo not given) |  | inactive: -2.51% |
| O=c1cc(-c2ccco2)oc2ccc(Cl)cc12 | inconclusive: 22.4 µM [activator, partial curve, poor fit] |  |
| CC1(C)CC2CC(C)(CN2S(=O)(=O)c2cccc(N)c2)C1 (stereo not given) |  | inactive: -6.28% |
| O=C(CN1C(=O)COc2ccc(S(=O)(=O)N3CCCC3)cc21)NC1CCCCCCC1 |  | inactive: 8.27% |
| O=C(CCCCl)Oc1ccc2cc(-c3ccc4ccccc4n3)c(=O)oc2c1 | inconclusive: 18.4 µM [activator, partial curve] |  |
| CCC(C(=O)OCC(=O)N(CC)c1c(N)n(Cc2ccccc2)c(=O)[nH]c1=O)c1ccccc1 (stereo not given) |  | inactive: 6.98% |
| Oc1ccccc1-c1cc(-c2ccccc2)no1 | inconclusive: 8.2 µM [activator, partial curve] |  |
